Experimental data: PubChem BioAssay AID504444 (National Center for Advancing Translational Sciences (NCATS), 2011)
Hit rate of the full screen: of about 360,000 compounds, about 7,500 (2.1%) were called active. Inconclusive results, whose numbers are uncertain, are shown with a selection of clear calls. Calls come from the whole dose curve; as a rule, active = well fitted inhibition curve with a large enough effect; inconclusive = small, poorly fitted or top-dose-only effect, or effect the other way; inactive = flat fitted curve, though single readings scatter. Potencies of inconclusive entries are doubtful fits and often do not repeat.

Test: Nrf2 qHTS screen for inhibitors; note: nearly all actives have a fitted effect of over 60% in size
Conditions: A549 ARE-Fluc reporter, luciferase luminescence, 18-24 h; activity change, negative = inhibition: at 46 µM (top of the series)
Procedure, shortened: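 Two sequential reads on A549 ARE_Fluc cells exposed to compound for 18-24 h: a CellTiter-Fluor fluorescence read for viability, then a luciferase luminescence read for Nrf2/ARE activity.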
% is set by controls: 0 for no effect and ±100 for the full control effect; potency is the fitted concentration of half-maximal effect.

Structure (SMILES) | Potency | activity change, negative = inhibition
CC1CCCN(CCCNC(=O)c2ccc3c(c2)N(Cc2ccc(Cl)cc2)C(=O)c2ccccc2S3(=O)=O)C1 (centres undefined) | inconclusive: 3.66 µM [activator, full curve, poor fit] | 
Nc1ccccc1Nc1ccccc1 | inconclusive: 32.6 µM [falling, single point] | 
Cc1c(NC(=S)Nc2ccc(Cl)cc2)c(=O)n(-c2ccccc2)n1C |  | inactive: -0.505%
COc1ccc(CCNC(=O)CCc2nnc(Cc3ccc4c(c3)OCO4)o2)c(OC)c1 | inconclusive: 32.6 µM [falling, single point] | 
O=C(c1cnc(N2CCN(c3ncccn3)CC2)c2ccccc12)N1CCN(c2ccccn2)CC1 | inconclusive: 29.1 µM [falling, single point] | 
CCOC(=O)c1c(NC(=O)C2COc3ccccc3O2)sc(C(C)=O)c1C (centres undefined) | inconclusive: 3.66 µM [falling, full curve, poor fit] | 
Cc1ccc(C)c(C(=O)COc2ccccc2[N+](=O)[O-])c1 |  | inactive: -3.68%
Cc1ccc(NC(=O)c2cnn(-c3ccccc3)c2NC(=O)c2ccco2)cc1 | inconclusive: 5.17 µM [activator, full curve, poor fit] | 
CCOc1ccc(N(CC(=O)Nc2cccc(Cl)c2)S(=O)(=O)c2c(C)noc2C)cc1 | active: 23.1 µM | 
CC(C)C(NC(=O)c1ccccc1Cl)C(=O)OCc1nc2scc(-c3ccccc3Cl)c2c(=O)[nH]1 (centres undefined) | inconclusive: 18.4 µM [falling, single point] | 
Cc1ccc(Nc2sc(C(=O)c3ccccc3)c(N)c2S(=O)(=O)c2ccccc2)cc1Cl | inconclusive: 2.59 µM [falling, partial curve] | 
Cc1noc(C)c1CCC(=O)NC1CCCN(Cc2ccc(CC(C)C)cc2)C1 (centres undefined) | inconclusive: 20.6 µM [falling, single point] | 
CNC(=S)N/N=C(\C)c1cccc(C(F)(F)F)c1 |  | inactive: -21.1%
CCn1c(SCc2ccc(C#N)cc2)nnc1-c1ccc(S(=O)(=O)N2CCCCC2)cc1 | inconclusive: 1.3 µM [falling, partial curve, poor fit] | 
O=C(c1ccccc1)c1c2c(cc3sc4ccccc4[n+]13)-c1cccc3cccc-2c13 | active: 20.6 µM | 
Cc1cc(Cl)cc(C)c1OCCOCCNCc1ccccc1 |  | inactive: 2.67%
COc1ccc2c(c1)C(C)=CC(C)(C)N2C(=O)C(C)N1C(=O)c2ccccc2C1=O (centres undefined) | inconclusive: 11.6 µM [falling, partial curve, poor fit] | 
CCCNC(=O)NS(=O)(=O)c1ccc(Cl)cc1 |  | inactive: 27.7%
CCOc1ccc(NC2C=CS(=O)(=O)C2)cc1 (centres undefined) | inconclusive: 29.1 µM [activator, single point] | 
O=C(O)c1ccccc1SCc1cn2cc(Cl)ccc2n1 | inconclusive: 16.4 µM [activator, partial curve] | 
Cc1cc(C)n2c(Br)c(CSc3nc4ccccc4o3)nc2n1 |  | inactive: -18.3%
CC(C)N(C(=O)[C@H]1CC(CC(=O)NCc2ccco2)C(=O)N2CCc3c([nH]c4ccccc34)[C@]12C)C(C)C (some centres undefined) |  | inactive: 10.4%
Cc1ccccc1CNC(=O)CCS(=O)(=O)c1cc2c3c(c1)CCN3C(=O)CC2 | inconclusive: 20.6 µM [activator, partial curve, poor fit] | 

Structure (SMILES) | Potency | activity change, negative = inhibition
COc1ccc(-c2csc(-c3ccc(O)cc3)n2)cc1 |  | inactive: -5.19%
O=C(Nc1ccc(F)cc1)C1C2CCC3C(CCC21)C3(Cl)Cl (centres undefined) | inconclusive: 29.1 µM [falling, single point] | 
O=C(/C=C/c1ccco1)NC(=S)Nc1ccc(O)c(-c2nc3ccccc3s2)c1 | inconclusive: 29.1 µM [falling, single point] | 
CC(O)Cc1nsc(NC(=O)c2cccs2)n1 (centres undefined) | inconclusive: 5.8 µM [activator, partial curve, poor fit] | 
Cc1cc(C)nc(NC2=NCC(=O)N2c2ccc(F)c(Cl)c2)n1 | inconclusive: 5.8 µM [activator, single point] | 
CCOc1ccc2nc(NC(=O)C(NS(=O)(=O)c3cccc4nsnc34)C(C)C)sc2c1 (centres undefined) | inconclusive: 16.4 µM [falling, partial curve, poor fit] | 
Nc1c(C(=O)c2ccccc2)oc2ccc([N+](=O)[O-])cc12 |  | inactive: -4.88%
O=C(O)c1ccc(N/N=C/c2cccc(F)c2)cc1 | inconclusive: 0.731 µM [activator, full curve, poor fit] | 
Cc1cc(NC(=O)c2cc(C(C)C)on2)nn1Cc1ccc(Cl)cc1 | inconclusive: 29.1 µM [falling, single point] | 
CCCOc1ncnc2c1[nH]c1ccccc12 | inconclusive: 18.4 µM [falling, single point] | 
Cc1nnc(SCc2nnc(-c3cccs3)o2)s1 |  | inactive: 7.88%
O=C(CN1C(=O)CC(c2ccccc2)=Nc2ccccc21)Nc1ccc(Br)cc1 | inconclusive: 4.61 µM [falling, single point] | 
CN(CCc1ccccn1)C(=O)c1cccnc1Oc1ccc(Cl)cc1 | inconclusive: 1.64 µM [falling, partial curve, poor fit] | 
CSc1nc(-c2ccc(C)cc2)[nH]c1S(=O)(=O)c1ccccc1 | active: 18.4 µM | 
O=C(c1cccc(S(=O)(=O)N2CCCc3ccccc32)c1)N1CCN(c2ccccc2)CC1 | inconclusive: 29.1 µM [falling, single point] | 
CCOC(=O)[C@@H]1[C@H]2COc3ccc(Br)cc3[C@@H]2N2C(=O)N(c3ccc(Br)cc3)C(=O)[C@]12C |  | inactive: 3.77%
O=C(O)c1ccc(N/N=C/c2cn(-c3ccccc3)nc2-c2cccs2)cc1 | inconclusive: 18.4 µM [activator, partial curve] | 
COc1ccc(-c2noc(CSc3nnc(C)n3-c3cccc(C)c3)n2)cc1 | inconclusive: 18.4 µM [falling, single point] | 
CCOC(=O)c1nc(Nc2ccc(C(=O)OC(C)C)cc2)c2ccccc2n1 | inconclusive: 16.4 µM [falling, single point] | 
Cc1cccc(NC(=O)CCSc2ccccn2)c1 | inconclusive: 20.6 µM [activator, single point] | 
Cc1nc(SCc2nc3cc(Cl)c(F)cc3[nH]2)c2oc3ccccc3c2n1 | inconclusive: 20.6 µM [falling, single point] | 
COc1ccccc1C1CC(=O)NC(C)=C1C(=O)OC(C)C (centres undefined) | inconclusive: 6.51 µM [activator, single point] | 
Cc1cc(C=C(C#N)C#N)c(C)n1-c1ccccc1 | inconclusive: 2.31 µM [activator, partial curve, poor fit] | 

Fetched one by one from the entries so far (3):
Structure (SMILES) | Potency | activity change, negative = inhibition
Nc1c(C(=O)c2ccccc2)oc2ccc([N+](=O)[O-])cc12 |  | inactive: -4.88%
O=C(c1ccccc1)c1c2c(cc3sc4ccccc4[n+]13)-c1cccc3cccc-2c13 | active: 20.6 µM | 
CCOC(=O)c1nc(Nc2ccc(C(=O)OC(C)C)cc2)c2ccccc2n1 | inconclusive: 16.4 µM [falling, single point] | 

Following part

Structure (SMILES) | Potency | activity change, negative = inhibition
Cc1cccc(C(=O)Nc2ccccc2C(=O)Nc2ccc(C(=O)O)cc2)c1 |  | inactive: -14.7%
O=C(Nc1nnc(SCc2ccccc2F)s1)C1=COCCO1 | inconclusive: 20.6 µM [activator, partial curve] | 
CCc1ccc(/C=C/C(=O)c2c(C)cc(C)[nH]c2=O)cc1 | active: 18.4 µM | 
CCCc1nc(NC2CCCCC2)c(C#N)c2c1COC(C)(C)C2 |  | inactive: -8.06%
CCOC(=O)c1c(NC(=O)CSc2cn(CCNC(=O)c3ccc(OC)cc3)c3ccccc23)sc2c1CCCC2 | inconclusive: 9.2 µM [falling, partial curve, poor fit] | 
COc1ccc(C2c3c(n(C)c4ccccc34)C(=O)N2CC(=O)Nc2cccc(Cl)c2)cc1 (centres undefined) |  | inactive: 0.267%
O=C(COc1ccc(S(=O)(=O)NCc2ccccc2)cc1Cl)NCc1ccncc1 | inconclusive: 23.1 µM [falling, partial curve, poor fit] | 
CCN(CC)c1cc(C)c2cc(NC(=O)CNC(C)=O)ccc2n1 |  | inactive: 17.6%
CCc1nc2ccc(C(=O)O)cc2nc1CC | inconclusive: 20.6 µM [activator, single point] | 
COc1ccc(NC(=O)c2nc(S(=O)(=O)Cc3cccc(C)c3)ncc2Cl)c(OC)c1 |  | inactive: 1.24%
CC(=O)N1CCN(c2ccc(NCc3ccc(-c4ccc(Br)cc4)o3)cc2)CC1 | inconclusive: 9.2 µM [falling, partial curve] | 
COc1ccccc1CCC(=O)N(C)CC(=O)Nc1ccc(Cl)c(C(F)(F)F)c1 | inconclusive: 29.1 µM [falling, single point] | 
O=C(Nc1ccc(OC(F)(F)F)cc1)Nc1cccc([N+](=O)[O-])c1 | active: 20.6 µM | 
COc1ccc(-c2cc(-c3ccccc3)c(C#N)c(SCC(=O)O)n2)cc1 | inconclusive: 29.1 µM [falling, partial curve, poor fit] | 
Cc1nn(Cc2ccc(Cl)cc2)c(Cl)c1/C=N/NC(=O)CNc1ccccc1F | inconclusive: 29.1 µM [falling, single point] | 
COc1ccc(CNC(=O)c2ccc(-c3nc(CSc4ccc(C)cc4)c(C)o3)cc2)c(OC)c1 |  | inactive: -0.385%
Cc1cccc(CCNC(=O)c2cc3c(s2)-c2c(C)cccc2OC3)c1 | inconclusive: 13 µM [falling, partial curve, poor fit] | 
CC1N(C(=O)N2CCOCC2)CCN1S(=O)(=O)c1ccc(Cl)cc1 (centres undefined) |  | inactive: -2.76%
CCN(CC(=O)Nc1ccc(NC(C)=O)cc1)C(=O)/C=C/c1cn(-c2ccccc2)nc1-c1cccs1 | inconclusive: 16.4 µM [falling, single point] | 
Cc1ccc(Nc2nc(Cl)c(C=O)s2)cc1Cl |  | inactive: 11%
CCCN1CCN(C(=O)Cn2c(-c3cccs3)cc3cc(F)ccc32)CC1 |  | inactive: 8.18%
O=C(Nc1ccc2c(c1)OCCO2)c1cc2ccccc2o1 | inconclusive: 1.03 µM [activator, full curve] | 
Cc1cccc(Nc2nc(N)c([N+](=O)[O-])c(N3CCCC(C)C3)n2)c1 (centres undefined) | active: 16.4 µM | 
